Assay results taken from article PMC11827640.
No constants are given. Whether binding was seen depends on the method and setting. Binding seen in cells or lysates may run through a third protein. Some binding calls cover weakened binding; strength is not graded here.

By UniProt entry, the sequences of proteins in these tests, tags left out.
UniProt O43707: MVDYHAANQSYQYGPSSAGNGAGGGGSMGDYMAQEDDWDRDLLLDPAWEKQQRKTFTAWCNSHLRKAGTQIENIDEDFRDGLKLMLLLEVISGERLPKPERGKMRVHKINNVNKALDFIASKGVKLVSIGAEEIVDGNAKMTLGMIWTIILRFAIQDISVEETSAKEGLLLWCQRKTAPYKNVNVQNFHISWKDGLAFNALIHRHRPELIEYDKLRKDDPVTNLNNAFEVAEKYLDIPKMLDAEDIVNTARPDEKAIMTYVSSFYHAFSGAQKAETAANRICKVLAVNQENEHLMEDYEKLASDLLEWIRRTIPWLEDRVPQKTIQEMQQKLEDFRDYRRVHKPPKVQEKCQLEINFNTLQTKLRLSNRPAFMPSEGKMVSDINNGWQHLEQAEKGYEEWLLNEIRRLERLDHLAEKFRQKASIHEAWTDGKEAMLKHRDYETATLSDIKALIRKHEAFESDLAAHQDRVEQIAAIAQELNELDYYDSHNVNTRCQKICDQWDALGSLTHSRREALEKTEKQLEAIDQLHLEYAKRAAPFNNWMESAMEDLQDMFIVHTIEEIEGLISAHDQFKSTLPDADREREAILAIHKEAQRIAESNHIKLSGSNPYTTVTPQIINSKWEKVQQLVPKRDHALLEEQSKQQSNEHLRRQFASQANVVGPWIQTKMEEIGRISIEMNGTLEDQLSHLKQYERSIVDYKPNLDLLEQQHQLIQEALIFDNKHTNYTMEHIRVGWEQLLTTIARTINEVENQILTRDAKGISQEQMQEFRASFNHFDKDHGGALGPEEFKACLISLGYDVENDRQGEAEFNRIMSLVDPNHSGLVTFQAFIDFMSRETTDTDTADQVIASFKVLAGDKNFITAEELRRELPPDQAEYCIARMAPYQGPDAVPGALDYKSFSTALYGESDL
UniProt P21333: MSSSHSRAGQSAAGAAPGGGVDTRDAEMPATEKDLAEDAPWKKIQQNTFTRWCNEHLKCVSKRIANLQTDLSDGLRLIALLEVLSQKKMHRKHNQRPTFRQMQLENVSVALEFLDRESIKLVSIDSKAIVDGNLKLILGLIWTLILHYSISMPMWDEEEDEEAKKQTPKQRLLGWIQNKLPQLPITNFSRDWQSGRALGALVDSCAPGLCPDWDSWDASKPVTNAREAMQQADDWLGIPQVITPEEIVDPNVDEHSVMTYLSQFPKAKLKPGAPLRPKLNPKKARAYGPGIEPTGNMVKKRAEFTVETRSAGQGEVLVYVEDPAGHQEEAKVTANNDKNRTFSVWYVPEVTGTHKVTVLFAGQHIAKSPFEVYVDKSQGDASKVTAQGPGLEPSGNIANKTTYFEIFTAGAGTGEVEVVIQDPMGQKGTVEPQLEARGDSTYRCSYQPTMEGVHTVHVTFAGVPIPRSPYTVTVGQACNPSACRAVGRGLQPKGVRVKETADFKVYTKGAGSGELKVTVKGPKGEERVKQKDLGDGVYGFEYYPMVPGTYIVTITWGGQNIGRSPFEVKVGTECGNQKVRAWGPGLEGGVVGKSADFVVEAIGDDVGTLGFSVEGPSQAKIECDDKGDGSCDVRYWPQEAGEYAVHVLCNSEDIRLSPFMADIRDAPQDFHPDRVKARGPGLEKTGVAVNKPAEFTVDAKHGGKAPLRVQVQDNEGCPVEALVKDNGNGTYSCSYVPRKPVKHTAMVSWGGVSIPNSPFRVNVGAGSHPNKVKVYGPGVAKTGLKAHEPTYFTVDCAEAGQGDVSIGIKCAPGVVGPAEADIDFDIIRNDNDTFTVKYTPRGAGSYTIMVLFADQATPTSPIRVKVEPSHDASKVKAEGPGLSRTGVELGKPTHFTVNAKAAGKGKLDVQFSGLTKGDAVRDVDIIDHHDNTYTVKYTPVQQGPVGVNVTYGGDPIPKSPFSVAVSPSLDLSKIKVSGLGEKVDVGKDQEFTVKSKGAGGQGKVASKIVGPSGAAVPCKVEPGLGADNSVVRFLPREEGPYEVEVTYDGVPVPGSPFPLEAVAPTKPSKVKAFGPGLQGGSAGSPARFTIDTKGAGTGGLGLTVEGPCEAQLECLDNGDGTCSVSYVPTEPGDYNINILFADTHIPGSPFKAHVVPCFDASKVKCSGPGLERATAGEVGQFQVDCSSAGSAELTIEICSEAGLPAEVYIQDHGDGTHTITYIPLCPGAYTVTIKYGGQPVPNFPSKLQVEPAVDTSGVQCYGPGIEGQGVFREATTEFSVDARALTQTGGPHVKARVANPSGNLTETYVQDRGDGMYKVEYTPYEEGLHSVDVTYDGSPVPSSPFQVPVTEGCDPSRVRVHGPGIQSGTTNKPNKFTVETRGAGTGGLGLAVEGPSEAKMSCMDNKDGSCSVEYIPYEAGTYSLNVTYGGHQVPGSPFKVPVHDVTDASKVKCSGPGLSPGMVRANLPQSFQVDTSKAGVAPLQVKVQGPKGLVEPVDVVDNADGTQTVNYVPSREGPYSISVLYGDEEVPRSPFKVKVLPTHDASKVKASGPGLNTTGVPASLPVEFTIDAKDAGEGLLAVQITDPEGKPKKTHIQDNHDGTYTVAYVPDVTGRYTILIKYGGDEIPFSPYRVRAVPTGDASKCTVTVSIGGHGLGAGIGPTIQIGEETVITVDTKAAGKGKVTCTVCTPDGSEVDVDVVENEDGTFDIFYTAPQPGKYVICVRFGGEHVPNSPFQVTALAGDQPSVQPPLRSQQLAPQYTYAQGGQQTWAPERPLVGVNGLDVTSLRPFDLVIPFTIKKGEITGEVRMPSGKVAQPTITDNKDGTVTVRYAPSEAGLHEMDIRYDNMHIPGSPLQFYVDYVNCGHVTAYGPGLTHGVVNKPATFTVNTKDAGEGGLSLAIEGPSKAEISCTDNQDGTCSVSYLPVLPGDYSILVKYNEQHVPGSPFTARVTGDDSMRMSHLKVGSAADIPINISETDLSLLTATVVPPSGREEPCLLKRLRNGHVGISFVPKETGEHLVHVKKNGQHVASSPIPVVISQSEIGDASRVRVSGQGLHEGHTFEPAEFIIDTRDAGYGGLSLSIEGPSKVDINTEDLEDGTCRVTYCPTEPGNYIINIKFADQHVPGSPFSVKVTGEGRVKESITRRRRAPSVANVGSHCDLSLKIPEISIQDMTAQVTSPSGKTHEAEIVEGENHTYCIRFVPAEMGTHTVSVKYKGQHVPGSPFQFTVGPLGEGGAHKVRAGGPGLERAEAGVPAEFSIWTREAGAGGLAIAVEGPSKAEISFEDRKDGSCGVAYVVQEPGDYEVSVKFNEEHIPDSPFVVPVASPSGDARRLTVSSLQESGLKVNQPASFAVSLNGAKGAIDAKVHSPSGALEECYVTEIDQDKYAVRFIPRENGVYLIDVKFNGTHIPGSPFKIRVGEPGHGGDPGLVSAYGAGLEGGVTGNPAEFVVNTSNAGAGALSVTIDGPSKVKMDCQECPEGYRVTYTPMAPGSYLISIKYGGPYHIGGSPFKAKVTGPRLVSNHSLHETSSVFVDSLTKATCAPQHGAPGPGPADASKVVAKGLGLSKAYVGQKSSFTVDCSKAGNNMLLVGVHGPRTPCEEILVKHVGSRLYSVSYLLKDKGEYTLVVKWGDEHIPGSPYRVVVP
UniProt Q13535: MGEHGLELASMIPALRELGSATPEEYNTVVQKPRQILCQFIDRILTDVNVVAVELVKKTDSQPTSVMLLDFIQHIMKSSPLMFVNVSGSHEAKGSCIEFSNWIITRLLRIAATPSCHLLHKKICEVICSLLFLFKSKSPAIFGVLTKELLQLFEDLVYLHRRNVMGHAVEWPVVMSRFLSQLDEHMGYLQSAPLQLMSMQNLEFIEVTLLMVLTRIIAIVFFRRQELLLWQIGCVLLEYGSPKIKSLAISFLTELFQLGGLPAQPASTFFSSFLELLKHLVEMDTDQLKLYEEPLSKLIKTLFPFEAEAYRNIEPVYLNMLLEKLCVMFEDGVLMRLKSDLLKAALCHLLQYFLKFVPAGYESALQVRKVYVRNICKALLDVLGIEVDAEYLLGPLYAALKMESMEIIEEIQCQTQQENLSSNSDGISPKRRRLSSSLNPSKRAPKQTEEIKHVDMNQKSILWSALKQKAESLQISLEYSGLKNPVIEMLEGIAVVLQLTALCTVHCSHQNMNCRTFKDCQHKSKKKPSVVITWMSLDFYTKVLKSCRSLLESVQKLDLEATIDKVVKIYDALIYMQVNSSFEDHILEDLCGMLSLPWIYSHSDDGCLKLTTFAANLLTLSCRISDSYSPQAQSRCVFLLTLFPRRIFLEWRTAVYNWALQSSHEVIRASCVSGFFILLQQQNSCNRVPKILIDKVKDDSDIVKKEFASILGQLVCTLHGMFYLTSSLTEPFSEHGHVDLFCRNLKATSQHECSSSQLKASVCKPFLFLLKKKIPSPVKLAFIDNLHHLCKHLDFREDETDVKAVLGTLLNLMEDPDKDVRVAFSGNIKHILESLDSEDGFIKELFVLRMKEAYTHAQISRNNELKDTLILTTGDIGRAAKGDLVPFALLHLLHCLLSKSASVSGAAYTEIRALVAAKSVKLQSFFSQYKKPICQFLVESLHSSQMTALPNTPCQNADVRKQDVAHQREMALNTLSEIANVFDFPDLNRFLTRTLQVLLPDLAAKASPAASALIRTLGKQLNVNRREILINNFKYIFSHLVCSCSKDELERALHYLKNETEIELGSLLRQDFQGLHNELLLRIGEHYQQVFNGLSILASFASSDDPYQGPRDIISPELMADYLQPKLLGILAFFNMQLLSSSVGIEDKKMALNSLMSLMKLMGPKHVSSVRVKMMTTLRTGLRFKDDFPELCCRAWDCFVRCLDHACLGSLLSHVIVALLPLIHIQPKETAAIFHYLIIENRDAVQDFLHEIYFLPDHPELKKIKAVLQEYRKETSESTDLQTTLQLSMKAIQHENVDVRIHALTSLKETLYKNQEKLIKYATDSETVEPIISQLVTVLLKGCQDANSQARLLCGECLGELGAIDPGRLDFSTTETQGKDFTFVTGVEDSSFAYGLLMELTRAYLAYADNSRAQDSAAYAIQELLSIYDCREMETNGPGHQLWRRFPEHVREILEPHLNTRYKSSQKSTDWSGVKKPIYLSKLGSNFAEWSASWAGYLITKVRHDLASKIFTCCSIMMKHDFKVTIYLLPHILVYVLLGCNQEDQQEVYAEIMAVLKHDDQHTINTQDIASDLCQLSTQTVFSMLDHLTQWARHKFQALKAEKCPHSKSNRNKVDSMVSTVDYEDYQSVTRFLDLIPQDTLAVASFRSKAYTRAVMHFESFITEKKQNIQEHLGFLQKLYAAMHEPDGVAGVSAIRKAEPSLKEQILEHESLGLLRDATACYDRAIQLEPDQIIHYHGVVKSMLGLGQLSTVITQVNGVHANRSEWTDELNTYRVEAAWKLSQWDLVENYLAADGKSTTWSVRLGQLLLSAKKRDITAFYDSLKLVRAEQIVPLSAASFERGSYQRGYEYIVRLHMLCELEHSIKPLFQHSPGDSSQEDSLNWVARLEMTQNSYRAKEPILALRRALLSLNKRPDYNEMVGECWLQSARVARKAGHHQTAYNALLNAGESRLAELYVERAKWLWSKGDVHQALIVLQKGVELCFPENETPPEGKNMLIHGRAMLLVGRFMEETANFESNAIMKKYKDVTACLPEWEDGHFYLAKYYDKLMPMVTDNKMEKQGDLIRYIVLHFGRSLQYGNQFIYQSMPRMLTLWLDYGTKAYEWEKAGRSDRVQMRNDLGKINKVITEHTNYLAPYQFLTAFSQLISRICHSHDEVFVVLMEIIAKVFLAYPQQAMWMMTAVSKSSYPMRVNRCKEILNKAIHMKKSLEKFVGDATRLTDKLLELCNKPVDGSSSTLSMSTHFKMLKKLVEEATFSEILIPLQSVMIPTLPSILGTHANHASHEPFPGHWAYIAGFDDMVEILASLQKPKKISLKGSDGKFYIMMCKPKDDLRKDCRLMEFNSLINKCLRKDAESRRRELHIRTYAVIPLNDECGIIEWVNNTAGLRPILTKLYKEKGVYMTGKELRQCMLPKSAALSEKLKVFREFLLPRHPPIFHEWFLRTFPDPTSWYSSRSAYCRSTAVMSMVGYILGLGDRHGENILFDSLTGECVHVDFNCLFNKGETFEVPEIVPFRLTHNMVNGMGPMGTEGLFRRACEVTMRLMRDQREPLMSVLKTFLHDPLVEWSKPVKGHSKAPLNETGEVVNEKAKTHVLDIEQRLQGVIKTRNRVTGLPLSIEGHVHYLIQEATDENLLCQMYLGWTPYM

Tests used:
[1] = biological target: T1, RASSF1A (human (endogenous in HeLa)) (UniProt Q9NS23); test: co-IP; endogenous RASSF1A immunoprecipitated from 500 μg total HeLa protein with 2 μg anti-RASSF1A overnight at 4°C, protein G Dynabeads, immunoblot; cells with or without mechanical stress
T1 sequence: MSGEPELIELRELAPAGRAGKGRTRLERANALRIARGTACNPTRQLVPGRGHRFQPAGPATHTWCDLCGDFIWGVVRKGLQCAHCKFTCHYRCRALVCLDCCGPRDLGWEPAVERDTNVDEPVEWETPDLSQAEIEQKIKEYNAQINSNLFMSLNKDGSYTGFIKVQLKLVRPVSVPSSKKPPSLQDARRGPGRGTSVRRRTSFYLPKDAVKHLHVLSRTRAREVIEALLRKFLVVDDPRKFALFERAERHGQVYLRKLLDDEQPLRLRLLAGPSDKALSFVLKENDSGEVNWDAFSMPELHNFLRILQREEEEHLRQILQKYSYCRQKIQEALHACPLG

[2] = biological target: T1, RASSF1A (human (endogenous in HeLa)); test: co-IP; HeLa nuclear extracts incubated with anti-RASSF1A overnight at 4°C, protein G Dynabeads, RIPA washes, immunoblot; cells under mechanical stimulation

Substance	binding [1]	binding [2]
α-actinin 4 (ACTN4) (from UniProt O43707 1-911)	binds	–
Filamin-A (from UniProt P21333 1-2647)	binds	–
Ataxia telangiectasia and Rad3-related protein (ATR) (from UniProt Q13535 1-2644) (enzyme)	–	binds
